Hit rate of the full screen: of about 340,000 compounds, about 2,300 (0.68%) were called active. The inconclusive results got no clear call from the source; some entries with a clear call stand among them for comparison. Rule as the data show it: active = growth rescue above about 28% (passing the limit was not always enough); inconclusive = no clear call, values can overlap the other calls.
Experiment: rescue of yeast from PfHsp40 toxicity, primary screen, S. cerevisiae, ATP luminescence (AID 504582);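 also: yeast W303a lacking pdr1 and pdr3 grown in galactose medium; growth measured after three days at 30 °C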
Conditions: S. cerevisiae expressing PfHsp40, growth rescue, at 12.5 µM, hits give high values

Structure (SMILES)	growth rescue
O=[N+]([O-])c1ccc(NC(=S)NCCc2ccc(F)cc2)cc1	inconclusive: 54.6%
Cc1ccc2c(CC(=O)N3CCOCC3)coc2c1	inconclusive: 25.4%
CCN(C(=O)c1cc2cc(OC)ccc2oc1=O)c1ccccc1	inactive: -0.728%
O=C(NCCN1CCOCC1)c1cccc(Cl)c1	inconclusive: 65.8%
NC(=S)N=Nc1c(O)n(Cc2ccc(F)cc2)c2ccccc12	inconclusive: 37.7%
COCCN(C(=O)COC(=O)c1ccccc1Nc1ccccc1)c1c(N)n(Cc2ccccc2)c(=O)[nH]c1=O	inconclusive: 36.3%
C=CCn1c(SCC(=O)Nc2c(C)cccc2C)nnc1-c1ccncc1	inconclusive: 26%
Cc1ccc(/C=C/C(=O)NC(=S)Nc2ccccc2C(=O)NC2CCCCC2)cc1	inconclusive: 27.1%
COc1ccc(Oc2coc3cc(OC(=O)/C=C/c4ccccc4)ccc3c2=O)cc1	active: 95%
CC(Oc1ccccc1)C(=O)N1CCN=C1SCc1ccc(F)cc1 (stereo not given)	inconclusive: 28.3%
COc1cccc(C(=O)O/N=C(\N)Cc2ccc(Cl)cc2)c1	inconclusive: 120%
Cc1[nH]c2ccccc2c1C(=O)CN1CCC2(CC1)OCCO2	inconclusive: 32.3%
COc1cccc(CNC(=O)C2CSC3(C)CCC(=O)N23)c1 (stereo not given)	inactive: -0.0835%
CCC1=NC(c2ccccc2)N(O)C1(C)C (stereo not given)	inconclusive: 32.1%
O=C1OC(c2ccccc2)C2(CCCC2)C(=O)C12CCCC2 (stereo not given)	inconclusive: 25.7%
C=CC[n+]1c(-c2ccc(Cl)cc2Cl)csc1Nc1ccc(NC(C)=O)cc1	inconclusive: 197%
Cc1ccc(CNCc2cccnc2)cc1	inactive: -1.21%
c1ccc(-c2nc(NCc3cccnc3)c3oc4ccccc4c3n2)cc1	active: 48%
CCOC(=O)C(C)Oc1cccc2c(=O)n(CC(=O)N3CCc4ccccc43)ccc12 (stereo not given)	active: 92.2%
CC(C)c1ccc(C(C)NC(=S)NC2CCCCC2)cc1 (stereo not given)	inconclusive: 72.5%
Cc1cc(Br)ccc1N1C(=O)CC(=O)NC1=O	inactive: -0.121%
N#CC1(Nc2cccc(Br)c2)C(=O)Nc2ccccc21 (stereo not given)	inactive: -1.11%
O=C(Cn1c(=O)oc2cc(S(=O)(=O)N3CCCC3)ccc21)N1CCN(c2ccccn2)CC1	inconclusive: 25.9%

Structure (SMILES)	growth rescue
COc1ccc(S(=O)(=O)N(CC(=O)N/N=C/c2cccs2)c2cc(C)cc(C)c2)cc1OC	active: 47.6%
O=C1C(=C(c2ccccc2)c2ccccc2)Nc2ccccc21	active: 77.7%
COC1C(C)OC(OC2CC(C)(O)Cc3cc4c(c(O)c32)C(=O)c2c(O)cc3c(c2C4=O)OC2OC3(C)C(O)C(N(C)C)C2O)C(OC)C1(C)OC (stereo not given)	inactive: 5.18%
Cc1ccc(O)c(C2=NNC(c3ccc(Cl)cc3)C2)c1 (stereo not given)	inconclusive: 165%
O=C(NC1CCN(Cc2ccccc2)CC1)c1ccccc1NS(=O)(=O)c1ccc(F)cc1	inconclusive: 45.4%
CCCS(=O)(=O)NCc1cn2cccc(C)c2n1	inactive: -1.69%
O=C(NCc1ccc2c(c1)OCO2)c1ccc2snnc2c1	inconclusive: 140%
CNC(=O)c1sc(-c2ccccc2)nc1C	active: 93.3%
CN(C)C(=O)N1CCC(C(=O)NC2CCCCCCC2)CC1	active: 33.1%
O=S(=O)(Nc1nc2ccccc2nc1NCC1CCCO1)c1ccccc1 (stereo not given)	inactive: -1.76%
O=C(NCCNC(=O)c1ccccc1)c1ccccc1	inconclusive: 40.8%
C[C@]12CC[C@H]3[C@@H](CCC4=CC(=O)CC[C@@]43C)[C@@H]1CC[C@@H]2C(=O)CO	inactive: -0.97%
COC(=O)Cn1ncn2c(cc3oc(C)cc32)c1=O	inconclusive: 27.8%
CCCCCn1c(=O)c(C(=O)NCc2ccncc2)c(O)c2ccccc21	inconclusive: 159%
Cc1ccc2nc(C)c(C(=O)N/N=C/c3ccc(N4CCOCC4)cc3)cc2c1	inactive: -0.383%
COc1cc2c(c(OC)c1CC=C(C)C)C[C@H](c1ccc(O)cc1O)CO2	inconclusive: 198%
CCCC(=O)NC(c1ccccc1Cl)c1ccc2cccnc2c1O (stereo not given)	inconclusive: 175%
O=C(c1ccc(Cl)cc1)N1CCN(c2cccc3[nH]ccc23)CC1	inconclusive: 27%
O=C(NN=C1C2CC3CC(C2)CC1C3)c1cc(Cl)ccc1O	inconclusive: 25.8%
Cc1ccc(NC(=S)NCCSc2ccc(Cl)cc2)cc1	inconclusive: 52.4%
CCN(CC)c1ccc(CC2C(=O)N(C)C(=O)N(C)C2=O)cc1	inconclusive: 32.4%
COc1cccc(N2CCN(c3nc(-c4ccccc4C)cc(=O)[nH]3)CC2)c1	active: 108%

Some of the entries so far, in CSV form.
Structure (SMILES),growth rescue
CCCCCn1c(=O)c(C(=O)NCc2ccncc2)c(O)c2ccccc21,inconclusive: 159%
Cc1ccc2nc(C)c(C(=O)N/N=C/c3ccc(N4CCOCC4)cc3)cc2c1,inactive: -0.383%
COc1cc2c(c(OC)c1CC=C(C)C)C[C@H](c1ccc(O)cc1O)CO2,inconclusive: 198%

From PubChem BioAssay AID504582 (Broad Institute, 2011)
